According to patent US6781015B2, “Aminobenzophenones and photopolymerizable compositions including the same” (Albemarle Corporation, priority 1997, dated 2004):

test: UV curing of hexanediol diacrylate compositions (photoinitiator activity); conditions: 1% aminobenzophenone compound in hexanediol diacrylate composition, 0.15 inch film, Fusion "H" bulb 600 Watts/inch, belt speed 55 feet per minute

SMILES	Passes under the lamp to obtain a well-cured hard polymer [passes]
CCN(C)c1ccc(C(=O)c2ccc(N(C)CC)cc2)cc1 [MEAB, 4,4′-bis(methylethylamino)benzophenone]	10
CCN(CC)c1ccc(C(=O)c2ccc(N(CC)CC)cc2)cc1 [TEMK, 4,4′-bis(diethylamino)benzophenone]	25
CN(C)c1ccc(C(=O)c2ccc(N(C)C)cc2)cc1 [TMMK, 4,4′-bis(dimethylamino)benzophenone]	10
